{"source": "patent US11512111B2", "about": "“Yeats inhibitors and methods of use thereof” (The University of Hong Kong, priority 2017, dated 2022)", "molecular_target": "T1, ENL YEATS domain (Homo sapiens, UniProt Q03111)", "T1 construct": "His-SUMO-ENL (1-138); His (N); SUMO (N); made in house; host or cells: E. coli Rosetta", "T1 sequence (Q03111 1-138)": "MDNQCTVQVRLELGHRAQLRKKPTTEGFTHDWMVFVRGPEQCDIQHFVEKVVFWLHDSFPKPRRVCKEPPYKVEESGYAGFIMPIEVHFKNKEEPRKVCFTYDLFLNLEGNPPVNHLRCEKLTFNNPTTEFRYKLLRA", "assay": "Photo-cross-linking-based competition assay", "assay_type": "binding", "details": "competition with photoaffinity probe, in-gel fluorescence", "note": "At least one structure is not confirmed: it was looked up by name or label, or the drawing left a doubt. Residues, ends and D or L forms follow the SMILES beside them. *: point of attachment. Oxazole(5-CO) = O=C(c1cnco1)*"}
{"smiles": "CC(=O)N[C@@H](C)C(=O)N[C@@H](C)C(=O)N[C@@H](CCCNC(=N)N)C(=O)N[C@@H](CCCCNC(=O)c1cnco1)C(N)=O", "note": "[Compound 40] (Ac-AARK(Oxazole(5-CO))-NH2)", "values": [{"measurement": "IC50", "result": 280, "unit": "nM"}]}
